The list shows a part of the results. Most values lie at the level of the controls, where differences are scatter.
Compound: CN[C@@H]1C[C@H]2O[C@@](C)([C@@H]1OC)n1c3ccccc3c3c4c(c5c6ccccc6n2c5c31)C(=O)NC4 [staurosporine]
Assay: log2 fold change of tryptic peptide abundance, ligand vs vehicle (limited proteolysis) (log2 ratio); higher = more trypsin-susceptible (destabilized)
Settings: ligand concentration: 20 uM; sample: K562 cleared lysate; digestion: 4 min, 22 C (HT-PELSA RT4min, Orbitrap Astral)

Chains of the proteins cited; added tags and fusions are not shown. Lines headed by an entry give the natural chain unless they say otherwise; changes in a name come on top.
UniProt Q6NUN9: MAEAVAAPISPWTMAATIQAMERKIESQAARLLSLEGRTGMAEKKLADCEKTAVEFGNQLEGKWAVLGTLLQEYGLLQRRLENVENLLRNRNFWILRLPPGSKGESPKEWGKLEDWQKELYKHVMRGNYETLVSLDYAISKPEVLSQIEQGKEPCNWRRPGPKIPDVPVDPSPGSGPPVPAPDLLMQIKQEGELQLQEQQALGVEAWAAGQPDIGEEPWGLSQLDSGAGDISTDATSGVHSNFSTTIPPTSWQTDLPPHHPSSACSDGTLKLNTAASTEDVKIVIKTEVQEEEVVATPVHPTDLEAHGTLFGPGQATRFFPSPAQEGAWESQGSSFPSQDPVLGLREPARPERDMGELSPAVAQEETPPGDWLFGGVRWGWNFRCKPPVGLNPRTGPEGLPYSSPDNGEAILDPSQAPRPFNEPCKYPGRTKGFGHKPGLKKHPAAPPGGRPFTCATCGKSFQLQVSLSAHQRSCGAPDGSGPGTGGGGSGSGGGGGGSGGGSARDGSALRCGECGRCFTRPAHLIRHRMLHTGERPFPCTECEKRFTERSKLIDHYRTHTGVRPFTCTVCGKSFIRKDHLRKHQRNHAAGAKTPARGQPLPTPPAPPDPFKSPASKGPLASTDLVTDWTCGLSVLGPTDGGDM
UniProt Q6WCQ1: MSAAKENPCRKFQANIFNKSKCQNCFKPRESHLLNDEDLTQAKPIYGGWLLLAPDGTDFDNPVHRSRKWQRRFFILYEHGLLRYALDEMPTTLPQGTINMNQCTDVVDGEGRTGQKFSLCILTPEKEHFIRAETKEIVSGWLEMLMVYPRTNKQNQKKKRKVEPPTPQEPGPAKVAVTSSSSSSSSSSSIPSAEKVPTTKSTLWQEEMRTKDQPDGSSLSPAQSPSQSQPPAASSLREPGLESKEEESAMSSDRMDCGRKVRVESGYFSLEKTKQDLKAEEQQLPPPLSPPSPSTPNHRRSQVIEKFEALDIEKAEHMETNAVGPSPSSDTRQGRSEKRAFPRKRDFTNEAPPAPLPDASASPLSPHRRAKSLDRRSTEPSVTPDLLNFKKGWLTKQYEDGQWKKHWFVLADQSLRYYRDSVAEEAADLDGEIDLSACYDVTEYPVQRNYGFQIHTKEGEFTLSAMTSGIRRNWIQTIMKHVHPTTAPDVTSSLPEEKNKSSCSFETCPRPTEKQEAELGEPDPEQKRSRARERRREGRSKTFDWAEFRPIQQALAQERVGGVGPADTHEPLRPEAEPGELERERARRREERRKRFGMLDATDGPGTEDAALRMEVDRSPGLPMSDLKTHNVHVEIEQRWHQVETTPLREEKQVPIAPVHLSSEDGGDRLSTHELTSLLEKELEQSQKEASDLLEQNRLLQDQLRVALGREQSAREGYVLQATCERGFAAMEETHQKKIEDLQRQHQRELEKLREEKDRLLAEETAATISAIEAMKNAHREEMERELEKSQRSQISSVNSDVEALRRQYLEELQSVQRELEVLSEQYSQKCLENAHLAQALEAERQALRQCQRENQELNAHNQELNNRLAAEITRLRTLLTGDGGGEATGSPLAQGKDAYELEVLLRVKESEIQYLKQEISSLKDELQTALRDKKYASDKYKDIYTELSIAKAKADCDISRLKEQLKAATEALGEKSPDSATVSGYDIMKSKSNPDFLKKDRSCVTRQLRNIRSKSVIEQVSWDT
UniProt Q6NZ36: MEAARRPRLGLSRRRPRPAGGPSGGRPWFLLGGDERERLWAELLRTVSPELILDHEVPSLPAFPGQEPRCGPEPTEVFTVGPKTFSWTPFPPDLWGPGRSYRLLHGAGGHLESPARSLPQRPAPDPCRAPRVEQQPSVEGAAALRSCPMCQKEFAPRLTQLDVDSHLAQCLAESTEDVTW
UniProt Q6YN16: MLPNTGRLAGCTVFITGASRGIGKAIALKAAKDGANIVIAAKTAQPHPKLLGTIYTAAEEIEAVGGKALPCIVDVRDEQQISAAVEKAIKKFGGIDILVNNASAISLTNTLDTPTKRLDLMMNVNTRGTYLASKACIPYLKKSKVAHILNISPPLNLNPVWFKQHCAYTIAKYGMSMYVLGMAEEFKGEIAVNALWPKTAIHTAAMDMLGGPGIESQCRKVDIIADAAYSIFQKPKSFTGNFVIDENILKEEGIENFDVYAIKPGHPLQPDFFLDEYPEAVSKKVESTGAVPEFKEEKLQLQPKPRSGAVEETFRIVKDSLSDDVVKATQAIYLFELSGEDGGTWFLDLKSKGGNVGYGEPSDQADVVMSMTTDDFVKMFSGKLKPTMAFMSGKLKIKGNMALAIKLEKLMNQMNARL
UniProt Q6PI48: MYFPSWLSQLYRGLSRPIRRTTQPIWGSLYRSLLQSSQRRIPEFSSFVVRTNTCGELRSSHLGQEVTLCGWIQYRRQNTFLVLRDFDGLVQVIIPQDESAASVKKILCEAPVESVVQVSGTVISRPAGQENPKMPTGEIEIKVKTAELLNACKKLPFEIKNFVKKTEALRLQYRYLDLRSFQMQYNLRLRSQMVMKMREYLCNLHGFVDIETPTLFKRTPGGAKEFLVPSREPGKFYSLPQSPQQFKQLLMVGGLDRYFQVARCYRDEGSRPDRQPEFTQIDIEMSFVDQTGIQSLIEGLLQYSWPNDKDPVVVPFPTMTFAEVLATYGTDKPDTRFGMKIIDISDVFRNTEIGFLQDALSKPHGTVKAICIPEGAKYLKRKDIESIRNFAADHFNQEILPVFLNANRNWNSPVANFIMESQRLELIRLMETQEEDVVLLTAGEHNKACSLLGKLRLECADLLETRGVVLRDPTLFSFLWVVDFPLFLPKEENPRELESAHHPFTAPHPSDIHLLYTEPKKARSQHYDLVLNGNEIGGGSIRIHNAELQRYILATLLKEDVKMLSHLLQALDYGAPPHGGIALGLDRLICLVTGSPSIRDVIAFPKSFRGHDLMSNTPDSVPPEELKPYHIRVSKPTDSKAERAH
UniProt Q6P2C8: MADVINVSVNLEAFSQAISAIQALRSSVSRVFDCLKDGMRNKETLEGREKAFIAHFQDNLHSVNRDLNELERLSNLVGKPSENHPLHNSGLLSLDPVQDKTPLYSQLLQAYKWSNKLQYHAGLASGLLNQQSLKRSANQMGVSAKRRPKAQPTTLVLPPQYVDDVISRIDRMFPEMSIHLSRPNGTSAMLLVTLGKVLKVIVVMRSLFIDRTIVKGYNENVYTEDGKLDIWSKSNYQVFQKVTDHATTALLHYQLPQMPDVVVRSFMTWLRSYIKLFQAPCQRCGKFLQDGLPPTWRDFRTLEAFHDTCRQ
UniProt Q6DN03, whole entry: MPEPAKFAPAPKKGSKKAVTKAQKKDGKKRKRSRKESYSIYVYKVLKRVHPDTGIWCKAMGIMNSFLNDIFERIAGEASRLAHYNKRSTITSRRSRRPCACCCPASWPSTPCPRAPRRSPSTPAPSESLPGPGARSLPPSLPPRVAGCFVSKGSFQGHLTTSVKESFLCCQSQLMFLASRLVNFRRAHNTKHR
UniProt Q6UN15: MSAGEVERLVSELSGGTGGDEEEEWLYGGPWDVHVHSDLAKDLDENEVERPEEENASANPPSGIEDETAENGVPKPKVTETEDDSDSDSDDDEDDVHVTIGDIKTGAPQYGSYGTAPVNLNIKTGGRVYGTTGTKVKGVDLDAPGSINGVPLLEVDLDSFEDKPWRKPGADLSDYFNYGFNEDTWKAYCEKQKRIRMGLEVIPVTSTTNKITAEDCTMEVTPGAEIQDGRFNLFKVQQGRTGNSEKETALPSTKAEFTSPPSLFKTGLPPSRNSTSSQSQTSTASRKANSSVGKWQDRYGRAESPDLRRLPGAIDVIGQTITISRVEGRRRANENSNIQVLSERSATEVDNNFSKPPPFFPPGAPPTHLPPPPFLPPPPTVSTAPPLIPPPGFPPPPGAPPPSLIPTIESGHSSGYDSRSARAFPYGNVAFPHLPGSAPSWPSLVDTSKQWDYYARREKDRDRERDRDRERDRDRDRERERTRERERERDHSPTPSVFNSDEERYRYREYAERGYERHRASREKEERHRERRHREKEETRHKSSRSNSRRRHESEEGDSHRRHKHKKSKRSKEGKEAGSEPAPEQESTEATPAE
UniProt Q6NUQ4: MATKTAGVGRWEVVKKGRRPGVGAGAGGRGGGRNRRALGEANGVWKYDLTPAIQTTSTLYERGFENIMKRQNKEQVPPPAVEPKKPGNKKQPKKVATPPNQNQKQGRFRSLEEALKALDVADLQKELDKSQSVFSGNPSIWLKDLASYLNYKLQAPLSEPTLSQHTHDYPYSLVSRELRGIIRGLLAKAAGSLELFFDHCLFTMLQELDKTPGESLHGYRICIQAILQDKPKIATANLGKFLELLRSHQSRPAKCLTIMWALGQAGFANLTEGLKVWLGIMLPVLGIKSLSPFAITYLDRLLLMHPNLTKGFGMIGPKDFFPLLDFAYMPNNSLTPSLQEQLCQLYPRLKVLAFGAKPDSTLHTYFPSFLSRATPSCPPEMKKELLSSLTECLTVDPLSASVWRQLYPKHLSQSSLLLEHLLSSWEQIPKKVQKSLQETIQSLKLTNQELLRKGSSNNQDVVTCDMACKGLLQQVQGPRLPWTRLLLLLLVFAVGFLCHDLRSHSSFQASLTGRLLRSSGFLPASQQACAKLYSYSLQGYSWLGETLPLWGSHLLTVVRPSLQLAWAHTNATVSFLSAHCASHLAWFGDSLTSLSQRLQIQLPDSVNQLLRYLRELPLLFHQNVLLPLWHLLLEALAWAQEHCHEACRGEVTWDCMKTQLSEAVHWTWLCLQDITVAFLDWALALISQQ
UniProt Q6P3S6: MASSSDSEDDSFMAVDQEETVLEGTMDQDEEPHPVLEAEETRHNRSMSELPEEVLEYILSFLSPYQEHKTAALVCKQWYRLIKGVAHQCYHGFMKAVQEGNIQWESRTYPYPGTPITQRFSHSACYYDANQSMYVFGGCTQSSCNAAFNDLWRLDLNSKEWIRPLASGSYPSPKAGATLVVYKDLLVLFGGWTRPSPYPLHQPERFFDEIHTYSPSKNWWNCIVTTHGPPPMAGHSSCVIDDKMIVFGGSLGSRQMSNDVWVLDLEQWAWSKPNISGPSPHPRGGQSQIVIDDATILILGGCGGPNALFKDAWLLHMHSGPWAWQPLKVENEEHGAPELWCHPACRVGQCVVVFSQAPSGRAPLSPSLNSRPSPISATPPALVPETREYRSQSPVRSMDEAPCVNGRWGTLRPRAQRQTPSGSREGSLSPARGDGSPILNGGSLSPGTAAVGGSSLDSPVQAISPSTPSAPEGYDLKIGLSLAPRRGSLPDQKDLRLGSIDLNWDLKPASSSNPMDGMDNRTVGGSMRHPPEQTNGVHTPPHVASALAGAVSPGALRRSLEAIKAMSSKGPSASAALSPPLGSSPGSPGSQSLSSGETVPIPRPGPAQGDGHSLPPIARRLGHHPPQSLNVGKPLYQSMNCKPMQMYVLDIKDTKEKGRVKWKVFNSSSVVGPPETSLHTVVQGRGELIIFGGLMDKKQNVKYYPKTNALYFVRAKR
UniProt Q6XR72: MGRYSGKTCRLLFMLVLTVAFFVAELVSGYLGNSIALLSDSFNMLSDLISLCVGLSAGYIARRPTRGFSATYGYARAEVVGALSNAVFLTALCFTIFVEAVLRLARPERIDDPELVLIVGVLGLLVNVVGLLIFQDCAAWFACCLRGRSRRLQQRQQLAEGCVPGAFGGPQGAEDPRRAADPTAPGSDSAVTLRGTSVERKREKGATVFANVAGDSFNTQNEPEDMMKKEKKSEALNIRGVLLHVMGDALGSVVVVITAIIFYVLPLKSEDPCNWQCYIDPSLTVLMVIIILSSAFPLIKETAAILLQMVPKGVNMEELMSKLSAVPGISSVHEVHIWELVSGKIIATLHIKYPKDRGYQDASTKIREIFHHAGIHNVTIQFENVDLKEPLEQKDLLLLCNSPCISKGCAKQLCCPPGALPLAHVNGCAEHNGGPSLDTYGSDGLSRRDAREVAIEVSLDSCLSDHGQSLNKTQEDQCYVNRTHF
UniProt Q6DD88: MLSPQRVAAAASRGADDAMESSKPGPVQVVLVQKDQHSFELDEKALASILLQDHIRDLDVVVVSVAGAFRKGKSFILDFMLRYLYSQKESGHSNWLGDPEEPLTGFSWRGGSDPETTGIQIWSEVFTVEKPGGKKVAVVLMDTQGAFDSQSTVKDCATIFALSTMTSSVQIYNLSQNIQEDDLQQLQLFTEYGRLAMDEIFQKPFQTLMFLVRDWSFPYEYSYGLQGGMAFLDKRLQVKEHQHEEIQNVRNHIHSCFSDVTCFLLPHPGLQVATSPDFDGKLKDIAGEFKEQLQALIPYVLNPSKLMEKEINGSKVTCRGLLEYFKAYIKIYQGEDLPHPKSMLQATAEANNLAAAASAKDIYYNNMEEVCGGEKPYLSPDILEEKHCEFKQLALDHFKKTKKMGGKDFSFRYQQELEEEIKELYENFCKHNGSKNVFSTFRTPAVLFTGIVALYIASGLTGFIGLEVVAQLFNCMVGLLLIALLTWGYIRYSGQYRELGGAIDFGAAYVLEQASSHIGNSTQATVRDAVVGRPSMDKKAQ

Target: ZNF746 (peptide sequence: CKPPVGLNPR, peptide start residue: 385) (UniProt Q6NUN9)
- log2 fold change: -0.773

Target: CIAPIN1 (peptide sequence: CASCPYLGMPAFKPGEK, peptide start residue: 285) (UniProt Q6FI81)
- log2 fold change: 0.145

Target: MPRIP (peptide sequence: EASDLLEQNR, peptide start residue: 689) (UniProt Q6WCQ1)
- log2 fold change: -0.422

Target: FAAP20 (peptide sequence: LLHGAGGHLESPAR, peptide start residue: 103) (UniProt Q6NZ36)
- log2 fold change: 0.373

Target: UniProt Q5W0Q7 (peptide sequence: VTSQVSNLK, peptide start residue: 718)
- log2 fold change: -0.142

Target: HSDL2 (peptide sequence: KVESTGAVPEFK, peptide start residue: 284) (UniProt Q6YN16)
- log2 fold change: -0.46

Target: DARS2 (peptide sequence: LECADLLETR, peptide start residue: 457) (UniProt Q6PI48)
- log2 fold change: -0.459

Target: RFWD3 (peptide sequence: TFTVSQAGNCR, peptide start residue: 441) (UniProt Q6PCD5)
- log2 fold change: 0.649

Target: TMED8 (peptide sequence: ATGPLEAQALVK, peptide start residue: 84) (UniProt Q6PL24)
- log2 fold change: -0.114

Target: MED27 (peptide sequence: LQYHAGLASGLLNQQSLKR, peptide start residue: 117) (UniProt Q6P2C8)
- log2 fold change: 0.162

Target: HIST2H2BC (peptide sequence: LAHYNKR, peptide start residue: 81) (UniProt Q6DN03)
- log2 fold change: 0.149

Target: FIP1L1 (peptide sequence: DHSPTPSVFNSDEER, peptide start residue: 490) (UniProt Q6UN15)
- log2 fold change: 0.547

Target: UniProt Q6PKH6 (peptide sequence: VALVTASTDGIGFAIAR, peptide start residue: 34)
- log2 fold change: 0.339

Target: ELMSAN1 (peptide sequence: TVAQCVEFYYTYKK, peptide start residue: 863) (UniProt Q6PJG2)
- log2 fold change: 0.433

Target: TMEM214 (peptide sequence: KGSSNNQDVVTCDMACK, peptide start residue: 453) (UniProt Q6NUQ4)
- log2 fold change: 0.21

Target: UniProt Q6NX49 (peptide sequence: AREELSHHVEVYR, peptide start residue: 99)
- log2 fold change: 0.364

Target: FBXO42 (peptide sequence: RGSLPDQK, peptide start residue: 486) (UniProt Q6P3S6)
- log2 fold change: 0.168

Target: SLC30A10 (peptide sequence: TQEDQCYVNR, peptide start residue: 473) (UniProt Q6XR72)
- log2 fold change: -0.0925

Target: TTC19 (peptide sequence: EIYQEALK, peptide start residue: 339) (UniProt Q6DKK2)
- log2 fold change: -0.402

Target: ATL3 (peptide sequence: GKSFILDFMLR, peptide start residue: 72) (UniProt Q6DD88)
- log2 fold change: 0.561

Target: NIPBL (peptide sequence: TGVHFHPK, peptide start residue: 2584) (UniProt Q6KC79)
- log2 fold change: 0.96

Target: UHRF1BP1 (peptide sequence: WHEETGLKPPWHLGVDSLFR, peptide start residue: 408) (UniProt Q6BDS2)
- log2 fold change: -0.947

Target: SPTY2D1 (peptide sequence: GVQSAAVQAFLK, peptide start residue: 38) (UniProt Q68D10)
- log2 fold change: -0.542

Target: LARP2 (peptide sequence: HKWVPLHLDVVR, peptide start residue: 76) (UniProt Q659C4)
- log2 fold change: -0.675

Target: UniProt Q6P499 (peptide sequence: DGSHSAALK, peptide start residue: 2)
- log2 fold change: -0.0706

Source: the supplement of paper PMC12819154, “High-throughput peptide-centric local stability assay extends protein–ligand identification to membrane proteins, tissues and bacteria” (Nature Structural & Molecular Biology, 2025)
